These results are taken from PMC9473341.

The chains behind the UniProt entries cited, without tags or fusion partners.
UniProt P10361: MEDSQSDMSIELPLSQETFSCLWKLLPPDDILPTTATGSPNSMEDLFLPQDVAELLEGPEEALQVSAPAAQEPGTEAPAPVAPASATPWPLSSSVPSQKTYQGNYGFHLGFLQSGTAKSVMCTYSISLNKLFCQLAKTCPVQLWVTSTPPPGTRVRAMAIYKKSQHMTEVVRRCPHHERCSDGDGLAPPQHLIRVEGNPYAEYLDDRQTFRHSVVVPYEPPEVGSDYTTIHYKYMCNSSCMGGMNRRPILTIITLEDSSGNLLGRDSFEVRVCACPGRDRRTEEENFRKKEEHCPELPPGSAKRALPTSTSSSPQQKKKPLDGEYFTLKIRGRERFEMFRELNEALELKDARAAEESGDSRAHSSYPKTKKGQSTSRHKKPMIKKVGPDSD
UniProt Q9JK66: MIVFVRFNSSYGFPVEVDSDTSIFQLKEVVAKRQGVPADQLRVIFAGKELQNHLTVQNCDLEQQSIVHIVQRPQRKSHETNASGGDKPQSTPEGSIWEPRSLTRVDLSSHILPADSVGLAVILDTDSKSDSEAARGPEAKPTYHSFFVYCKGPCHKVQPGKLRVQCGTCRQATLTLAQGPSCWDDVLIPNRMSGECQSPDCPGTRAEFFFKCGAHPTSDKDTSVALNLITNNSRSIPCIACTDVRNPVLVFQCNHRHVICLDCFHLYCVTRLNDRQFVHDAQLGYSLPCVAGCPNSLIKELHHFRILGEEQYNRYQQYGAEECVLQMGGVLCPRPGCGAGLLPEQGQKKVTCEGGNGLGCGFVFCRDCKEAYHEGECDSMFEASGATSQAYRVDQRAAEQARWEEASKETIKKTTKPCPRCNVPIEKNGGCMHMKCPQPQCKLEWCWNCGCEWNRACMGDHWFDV

The target of the experiment is p53 (rat (endogenous in H9C2)) (UniProt P10361). Put plainly: co-IP; H9C2 cell extract incubated with anti-p53 antibody or control IgG1 antibody at 4°C overnight, Protein G magnetic beads 30 min at 4°C, washed 5 times, immunoblot; cells treated with DOX with or without QSG.

No constants are given. Whether binding was seen depends on the method and setting. In cells and extracts the contact can be indirect. Some entries that bind do so weakly or less than the wild type.

In the case of Parkin (from UniProt Q9JK66 1-465), the binding result was “binds”.
